Measured data: PubChem BioAssay AID1259308 (NCATS, 2017)

Screen: 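Knock-downs that increase output of a recombinant reporter protein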 (primary screen)
Cell system: human HEK293 embryonic kidney cells stably expressing firefly luciferase (HEK-CMV-Luc2-Hygro)
Reagent: single siRNA against human genes, 0.8 pmol siRNA per well
Duration: 72 h
Measurement: 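Reporter luminescence and viable-cell signal on separate replicate plates, given as percent of non-targeting control and median/MAD z-scores, plus per-cell luciferase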
Reading the numbers: total luciferase, z-score: higher = more reporter protein produced
Call rule: 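An siRNA counts as active if its total luciferase robust z-score exceeds 3; genes with two or more such siRNAs out of three were retested with fresh siRNAs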
Meaning of the calls: active = raised luciferase; inactive = no rise
The whole screen tested about 59,000 reagents; below is a random part of them. About 1,510 of all reagents (2.6%) count as active. 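Calls use total luciferase alone and ignore viability, so some active siRNAs may act by altering cell number.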 Reagents against one gene are numbered here. Not all columns of the deposit are shown.

total luciferase, z-score, by gene and reagent
CTR9 (CTR9 component of Paf1/RNA polymerase II complex): #1 -0.264 inactive; #2 0.529 inactive; #3 -1.77 inactive
ATR (ATR checkpoint kinase): #1 -0.25 inactive; #2 -0.675 inactive; #3 0.164 inactive
MED9 (mediator complex subunit 9): #1 -1.01 inactive; #2 -0.654 inactive; #3 -1.94 inactive
VANGL1 (VANGL planar cell polarity protein 1): #1 0.924 inactive; #2 -0.169 inactive; #3 -1.14 inactive
ARHGAP36 (Rho GTPase activating protein 36): #1 -0.395 inactive; #2 -1.48 inactive; #3 0.281 inactive
SLC25A43: #1 0.464 inactive; #2 3.04 active; #3 -0.667 inactive
CLDN2 (claudin 2): #1 -1.1 inactive; #2 -2.28 inactive; #3 2.39 inactive
CREB3L4 (cAMP responsive element binding protein 3 like 4): #1 -0.609 inactive; #2 0.878 inactive; #3 -1.79 inactive

Copied from above (3 entries):
total luciferase, z-score, by gene and reagent
ATR (ATR checkpoint kinase): #3 0.164 inactive
MED9 (mediator complex subunit 9): #1 -1.01 inactive; #2 -0.654 inactive
